No constants are given. Whether binding was seen depends on the method and setting. Binding seen in cells or lysates may run through a third protein. These calls come from enrichment with a bait or labelling near it, and not all partners need be listed.
B1: EDC4, endogenous in HCT116 cells (protein, UniProt Q6P2E9 1-1401)
chain: MASCASIDIEDATQHLRDILKLDRPAGGPSAESPRPSSAYNGDLNGLLVPDPLCSGDSTSANKTGLRTMPPINLQEKQVICLSGDDSSTCIGILAKEVEIVASSDSSISSKARGSNKVKIQPVAKYDWEQKYYYGNLIAVSNSFLAYAIRAANNGSAMVRVISVSTSERTLLKGFTGSVADLAFAHLNSPQLACLDEAGNLFVWRLALVNGKIQEEILVHIRQPEGTPLNHFRRIIWCPFIPEESEDCCEESSPTVALLHEDRAEVWDLDMLRSSHSTWPVDVSQIKQGFIVVKGHSTCLSEGALSPDGTVLATASHDGYVKFWQIYIEGQDEPRCLHEWKPHDGRPLSCLLFCDNHKKQDPDVPFWRFLITGADQNRELKMWCTVSWTCLQTIRFSPDIFSSVSVPPSLKVCLDLSAEYLILSDVQRKVLYVMELLQNQEEGHACFSSISEFLLTHPVLSFGIQVVSRCRLRHTEVLPAEEENDSLGADGTHGAGAMESAAGVLIKLFCVHTKALQDVQIRFQPQLNPDVVAPLPTHTAHEDFTFGESRPELGSEGLGSAAHGSQPDLRRIVELPAPADFLSLSSETKPKLMTPDAFMTPSASLQQITASPSSSSSGSSSSSSSSSSSLTAVSAMSSTSAVDPSLTRPPEELTLSPKLQLDGSLTMSSSGSLQASPRGLLPGLLPAPADKLTPKGPGQVPTATSALSLELQEVEPLGLPQASPSRTRSPDVISSASTALSQDIPEIASEALSRGFGSSAPEGLEPDSMASAASALHLLSPRPRPGPELGPQLGLDGGPGDGDRHNTPSLLEAALTQEASTPDSQVWPTAPDITRETCSTLAESPRNGLQEKHKSLAFHRPPYHLLQQRDSQDASAEQSDHDDEVASLASASGGFGTKVPAPRLPAKDWKTKGSPRTSPKLKRKSKKDDGDAAMGSRLTEHQVAEPPEDWPALIWQQQRELAELRHSQEELLQRLCTQLEGLQSTVTGHVERALETRHEQEQRRLERALAEGQQRGGQLQEQLTQQLSQALSSAVAGRLERSIRDEIKKTVPPCVSRSLEPMAGQLSNSVATKLTAVEGSMKENISKLLKSKNLTDAIARAAADTLQGPMQAAYREAFQSVVLPAFEKSCQAMFQQINDSFRLGTQEYLQQLESHMKSRKAREQEAREPVLAQLRGLVSTLQSATEQMAATVAGSVRAEVQHQLHVAVGSLQESILAQVQRIVKGEVSVALKEQQAAVTSSIMQAMRSAAGTPVPSAHLDCQAQQAHILQLLQQGHLNQAFQQALTAADLNLVLYVCETVDPAQVFGQPPCPLSQPVLLSLIQQLASDLGTRTDLKLSYLEEAVMHLDHSDPITRDHMGSVMAQVRQKLFQFLQAEPHNSLGKAARRLSLMLHGLVTPSLP
B2: G3BP2, endogenous in HCT116 cells (protein, UniProt Q9UN86 1-482)
chain: MVMEKPSPLLVGREFVRQYYTLLNKAPEYLHRFYGRNSSYVHGGVDASGKPQEAVYGQNDIHHKVLSLNFSECHTKIRHVDAHATLSDGVVVQVMGLLSNSGQPERKFMQTFVLAPEGSVPNKFYVHNDMFRYEDEVFGDSEPELDEESEDEVEEEQEERQPSPEPVQENANSGYYEAHPVTNGIEEPLEESSHEPEPEPESETKTEELKPQVEEKNLEELEEKSTTPPPAEPVSLPQEPPKAFSWASVTSKNLPPSGTVSSSGIPPHVKAPVSQPRVEAKPEVQSQPPRVREQRPRERPGFPPRGPRPGRGDMEQNDSDNRRIIRYPDSHQLFVGNLPHDIDENELKEFFMSFGNVVELRINTKGVGGKLPNFGFVVFDDSEPVQRILIAKPIMFRGEVRLNVEEKKTRAARERETRGGGDDRRDIRRNDRGPGGPRGIVGGGMMRDRDGRGPPPRGGMAQKLGSGRGTGQMEGRFTGQRR

By UniProt entry, the sequences of proteins in these tests, tags left out.
UniProt O00425: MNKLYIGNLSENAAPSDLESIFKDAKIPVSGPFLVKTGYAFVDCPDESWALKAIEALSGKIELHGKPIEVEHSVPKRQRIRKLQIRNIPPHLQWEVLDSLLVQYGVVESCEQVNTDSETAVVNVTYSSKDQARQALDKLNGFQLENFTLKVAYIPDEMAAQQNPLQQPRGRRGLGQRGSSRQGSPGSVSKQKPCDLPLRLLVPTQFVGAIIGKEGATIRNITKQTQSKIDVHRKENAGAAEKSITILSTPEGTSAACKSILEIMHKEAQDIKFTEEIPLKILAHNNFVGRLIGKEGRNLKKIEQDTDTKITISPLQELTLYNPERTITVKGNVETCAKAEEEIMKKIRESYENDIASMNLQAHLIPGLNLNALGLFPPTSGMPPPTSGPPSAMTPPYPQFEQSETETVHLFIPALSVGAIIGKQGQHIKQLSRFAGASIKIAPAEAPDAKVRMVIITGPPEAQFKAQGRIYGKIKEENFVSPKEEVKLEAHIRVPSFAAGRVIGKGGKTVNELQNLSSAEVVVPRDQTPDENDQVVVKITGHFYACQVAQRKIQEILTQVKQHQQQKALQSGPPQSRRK
UniProt Q8IZH2: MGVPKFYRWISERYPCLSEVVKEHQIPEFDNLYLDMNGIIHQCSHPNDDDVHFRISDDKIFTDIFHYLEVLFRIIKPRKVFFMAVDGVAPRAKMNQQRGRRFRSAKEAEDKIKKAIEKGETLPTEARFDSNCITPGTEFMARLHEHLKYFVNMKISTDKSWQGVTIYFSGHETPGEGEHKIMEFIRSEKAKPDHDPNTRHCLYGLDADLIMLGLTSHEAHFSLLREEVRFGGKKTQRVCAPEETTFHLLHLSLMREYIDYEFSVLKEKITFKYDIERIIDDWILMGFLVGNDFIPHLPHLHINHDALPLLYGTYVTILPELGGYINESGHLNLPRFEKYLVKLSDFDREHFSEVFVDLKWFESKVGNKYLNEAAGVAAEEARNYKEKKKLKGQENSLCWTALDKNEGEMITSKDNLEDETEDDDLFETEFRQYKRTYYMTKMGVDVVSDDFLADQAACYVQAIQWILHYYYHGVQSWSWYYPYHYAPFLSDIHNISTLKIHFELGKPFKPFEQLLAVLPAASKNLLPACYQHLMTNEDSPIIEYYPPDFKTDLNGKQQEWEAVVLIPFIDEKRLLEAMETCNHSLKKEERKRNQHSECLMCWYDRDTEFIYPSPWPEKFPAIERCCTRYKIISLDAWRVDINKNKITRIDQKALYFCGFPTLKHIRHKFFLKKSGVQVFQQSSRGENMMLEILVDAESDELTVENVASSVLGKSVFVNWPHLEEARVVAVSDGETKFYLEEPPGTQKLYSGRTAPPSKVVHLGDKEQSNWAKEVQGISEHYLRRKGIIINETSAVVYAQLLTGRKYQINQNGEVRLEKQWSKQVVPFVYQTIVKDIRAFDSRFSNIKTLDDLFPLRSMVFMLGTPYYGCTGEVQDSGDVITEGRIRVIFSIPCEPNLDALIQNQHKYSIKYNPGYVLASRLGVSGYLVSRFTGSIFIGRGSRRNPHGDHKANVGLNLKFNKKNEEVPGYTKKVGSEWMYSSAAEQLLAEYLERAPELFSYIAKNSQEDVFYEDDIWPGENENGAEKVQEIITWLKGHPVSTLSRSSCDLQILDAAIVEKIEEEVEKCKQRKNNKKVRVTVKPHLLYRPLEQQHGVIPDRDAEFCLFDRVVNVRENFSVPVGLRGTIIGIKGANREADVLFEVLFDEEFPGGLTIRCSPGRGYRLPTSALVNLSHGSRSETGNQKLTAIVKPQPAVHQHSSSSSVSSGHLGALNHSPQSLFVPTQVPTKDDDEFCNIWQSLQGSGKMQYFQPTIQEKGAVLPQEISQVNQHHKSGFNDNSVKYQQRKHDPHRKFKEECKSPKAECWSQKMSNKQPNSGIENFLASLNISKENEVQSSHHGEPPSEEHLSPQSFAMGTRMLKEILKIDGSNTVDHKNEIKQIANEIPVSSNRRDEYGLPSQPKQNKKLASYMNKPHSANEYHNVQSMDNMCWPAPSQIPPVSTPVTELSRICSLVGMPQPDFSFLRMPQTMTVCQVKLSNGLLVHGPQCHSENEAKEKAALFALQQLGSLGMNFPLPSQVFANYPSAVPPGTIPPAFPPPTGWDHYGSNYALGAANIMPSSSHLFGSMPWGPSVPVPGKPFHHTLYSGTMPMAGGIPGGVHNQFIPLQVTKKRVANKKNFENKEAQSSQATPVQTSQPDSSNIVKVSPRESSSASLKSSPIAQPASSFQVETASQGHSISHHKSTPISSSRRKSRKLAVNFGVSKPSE
UniProt Q9UKV8: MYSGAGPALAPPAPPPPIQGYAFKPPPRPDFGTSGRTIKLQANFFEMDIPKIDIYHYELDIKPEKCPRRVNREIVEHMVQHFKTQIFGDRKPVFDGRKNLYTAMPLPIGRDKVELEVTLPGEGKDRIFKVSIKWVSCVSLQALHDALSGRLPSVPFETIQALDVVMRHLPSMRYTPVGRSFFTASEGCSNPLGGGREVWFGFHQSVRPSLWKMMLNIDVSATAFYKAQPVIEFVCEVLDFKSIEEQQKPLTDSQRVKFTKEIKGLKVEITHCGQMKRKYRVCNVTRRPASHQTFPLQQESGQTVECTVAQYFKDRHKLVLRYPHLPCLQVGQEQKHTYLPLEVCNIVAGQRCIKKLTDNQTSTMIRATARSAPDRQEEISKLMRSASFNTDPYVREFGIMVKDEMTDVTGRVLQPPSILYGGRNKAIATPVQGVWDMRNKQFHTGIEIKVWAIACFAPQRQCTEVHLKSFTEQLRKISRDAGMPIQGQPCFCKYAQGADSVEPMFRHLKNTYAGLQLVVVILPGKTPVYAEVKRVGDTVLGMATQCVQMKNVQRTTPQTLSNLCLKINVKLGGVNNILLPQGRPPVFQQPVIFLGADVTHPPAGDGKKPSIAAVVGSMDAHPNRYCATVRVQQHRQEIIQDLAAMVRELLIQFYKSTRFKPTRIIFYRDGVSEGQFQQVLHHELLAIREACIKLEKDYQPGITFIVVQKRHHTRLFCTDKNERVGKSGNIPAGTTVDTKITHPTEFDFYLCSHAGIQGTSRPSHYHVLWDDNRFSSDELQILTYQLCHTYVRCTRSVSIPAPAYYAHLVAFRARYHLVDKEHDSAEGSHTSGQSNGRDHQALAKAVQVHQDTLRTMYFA
UniProt Q15717: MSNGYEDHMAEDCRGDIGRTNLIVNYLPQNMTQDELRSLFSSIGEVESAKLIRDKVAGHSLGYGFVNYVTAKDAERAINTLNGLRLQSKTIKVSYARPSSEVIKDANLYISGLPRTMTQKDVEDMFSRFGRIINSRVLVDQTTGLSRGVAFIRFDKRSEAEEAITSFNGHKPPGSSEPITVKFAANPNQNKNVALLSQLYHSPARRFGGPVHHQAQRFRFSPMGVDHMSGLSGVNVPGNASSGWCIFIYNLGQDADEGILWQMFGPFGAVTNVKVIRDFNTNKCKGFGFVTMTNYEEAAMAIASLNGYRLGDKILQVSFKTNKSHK
UniProt P61326: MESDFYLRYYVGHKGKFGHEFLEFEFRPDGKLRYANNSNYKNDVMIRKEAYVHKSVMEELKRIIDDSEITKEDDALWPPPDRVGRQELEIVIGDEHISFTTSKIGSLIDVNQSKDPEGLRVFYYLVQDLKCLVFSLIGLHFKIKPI
UniProt Q96F86: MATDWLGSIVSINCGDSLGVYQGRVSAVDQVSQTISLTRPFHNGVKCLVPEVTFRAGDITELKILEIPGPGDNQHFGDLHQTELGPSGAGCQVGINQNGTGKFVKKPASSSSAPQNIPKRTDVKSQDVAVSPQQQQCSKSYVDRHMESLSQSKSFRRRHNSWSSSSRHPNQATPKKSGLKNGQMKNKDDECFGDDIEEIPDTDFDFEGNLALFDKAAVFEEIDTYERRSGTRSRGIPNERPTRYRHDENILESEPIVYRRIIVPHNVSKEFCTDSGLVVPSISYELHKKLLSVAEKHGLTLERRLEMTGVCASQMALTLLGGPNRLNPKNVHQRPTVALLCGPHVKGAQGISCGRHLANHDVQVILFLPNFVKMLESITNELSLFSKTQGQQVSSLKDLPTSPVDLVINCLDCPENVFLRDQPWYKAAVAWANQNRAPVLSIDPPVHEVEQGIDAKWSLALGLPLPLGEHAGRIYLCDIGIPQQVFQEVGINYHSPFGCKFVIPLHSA
UniProt P11940: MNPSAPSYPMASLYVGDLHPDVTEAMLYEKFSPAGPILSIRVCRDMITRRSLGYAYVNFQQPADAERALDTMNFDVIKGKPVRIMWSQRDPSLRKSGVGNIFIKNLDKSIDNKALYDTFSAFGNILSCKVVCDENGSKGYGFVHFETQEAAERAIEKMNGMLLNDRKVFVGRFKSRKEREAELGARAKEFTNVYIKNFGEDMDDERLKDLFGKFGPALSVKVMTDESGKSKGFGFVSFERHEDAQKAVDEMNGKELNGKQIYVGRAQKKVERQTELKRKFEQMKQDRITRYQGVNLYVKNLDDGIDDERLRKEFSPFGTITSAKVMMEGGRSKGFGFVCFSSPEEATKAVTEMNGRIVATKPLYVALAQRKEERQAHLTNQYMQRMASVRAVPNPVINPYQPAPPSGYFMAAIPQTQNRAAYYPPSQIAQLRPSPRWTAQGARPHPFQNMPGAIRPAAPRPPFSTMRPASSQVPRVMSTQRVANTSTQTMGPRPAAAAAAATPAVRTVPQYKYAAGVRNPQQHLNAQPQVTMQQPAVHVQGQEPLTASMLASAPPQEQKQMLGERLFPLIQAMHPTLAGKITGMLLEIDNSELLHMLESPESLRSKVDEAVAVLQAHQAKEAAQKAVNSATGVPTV
UniProt P51114: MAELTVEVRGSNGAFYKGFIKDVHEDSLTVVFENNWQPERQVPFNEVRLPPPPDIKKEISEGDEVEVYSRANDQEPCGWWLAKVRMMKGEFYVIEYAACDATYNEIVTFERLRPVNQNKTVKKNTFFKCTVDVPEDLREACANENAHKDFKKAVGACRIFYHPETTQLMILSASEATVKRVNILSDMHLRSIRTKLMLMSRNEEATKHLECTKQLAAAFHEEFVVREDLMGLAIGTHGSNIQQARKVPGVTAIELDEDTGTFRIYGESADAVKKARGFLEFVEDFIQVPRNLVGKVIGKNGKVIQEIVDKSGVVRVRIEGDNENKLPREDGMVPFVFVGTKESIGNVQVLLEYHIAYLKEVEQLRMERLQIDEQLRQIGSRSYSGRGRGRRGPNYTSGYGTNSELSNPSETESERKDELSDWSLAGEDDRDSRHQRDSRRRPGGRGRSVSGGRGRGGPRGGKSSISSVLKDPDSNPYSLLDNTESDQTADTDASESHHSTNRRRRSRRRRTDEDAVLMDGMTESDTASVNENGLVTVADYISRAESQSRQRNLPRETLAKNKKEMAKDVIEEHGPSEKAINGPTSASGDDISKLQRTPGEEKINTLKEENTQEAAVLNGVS
UniProt P51116: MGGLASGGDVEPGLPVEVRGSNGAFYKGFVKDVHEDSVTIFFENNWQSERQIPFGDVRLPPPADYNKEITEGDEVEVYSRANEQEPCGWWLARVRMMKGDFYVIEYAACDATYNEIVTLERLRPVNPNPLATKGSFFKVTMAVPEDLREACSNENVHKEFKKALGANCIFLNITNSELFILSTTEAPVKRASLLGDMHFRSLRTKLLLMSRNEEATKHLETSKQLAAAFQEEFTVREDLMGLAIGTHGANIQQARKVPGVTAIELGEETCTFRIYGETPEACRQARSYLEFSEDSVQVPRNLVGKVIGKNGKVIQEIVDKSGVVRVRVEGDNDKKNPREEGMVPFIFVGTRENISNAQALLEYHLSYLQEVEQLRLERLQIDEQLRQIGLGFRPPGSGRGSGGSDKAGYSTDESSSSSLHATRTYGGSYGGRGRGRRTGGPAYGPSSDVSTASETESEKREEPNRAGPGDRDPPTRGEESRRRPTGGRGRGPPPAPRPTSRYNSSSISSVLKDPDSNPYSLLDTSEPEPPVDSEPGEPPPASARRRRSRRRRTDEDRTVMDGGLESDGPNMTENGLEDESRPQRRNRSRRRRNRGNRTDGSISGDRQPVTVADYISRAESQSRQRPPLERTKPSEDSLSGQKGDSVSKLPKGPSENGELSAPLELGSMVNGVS
UniProt P67809: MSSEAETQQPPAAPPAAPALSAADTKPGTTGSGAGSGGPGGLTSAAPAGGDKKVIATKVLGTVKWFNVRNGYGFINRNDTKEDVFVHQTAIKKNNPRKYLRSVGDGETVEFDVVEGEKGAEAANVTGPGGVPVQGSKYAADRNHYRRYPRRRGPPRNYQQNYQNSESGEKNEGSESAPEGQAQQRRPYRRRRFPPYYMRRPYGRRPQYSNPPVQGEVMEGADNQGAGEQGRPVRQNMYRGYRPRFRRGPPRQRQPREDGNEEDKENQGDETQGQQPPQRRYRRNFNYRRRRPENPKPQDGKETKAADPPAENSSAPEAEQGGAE

Biological target: IGF2BP3 (insulin-like growth factor 2 mRNA-binding protein 3), endogenous in HCT116 cells (human (endogenous in HCT116)) (UniProt O00425)
Assay: affinity purification with mass spectrometry; endogenous IGF2BP3 immunoprecipitated from HCT116 WT lysate (Proteintech 14642-1-AP on protein G Dynabeads; IgG control); 25 mM HEPES pH 7.3, 150 mM NaCl, 0.5% NP-40; cells treated with DMSO or TM 5 µg/mL 4 h; with or without RNase I and RNase T1 in the second wash; label-free quantification

binding | Molecule
binds | B1
binds | B2

Biological target: IGF2BP3 (insulin-like growth factor 2 mRNA-binding protein 3), endogenous in HCT116 cells (human (endogenous in HCT116)) (UniProt O00425)
Assay: as above
Remark: another data set of the same source

binding | Molecule
binds | G3BP1, endogenous in HCT116 cells (from UniProt Q13283 1-466)
binds | XRN1, endogenous in HCT116 cells (from UniProt Q8IZH2 1-1706)
binds | AGO2, endogenous in HCT116 cells (from UniProt Q9UKV8 1-859)
binds | HuR (ELAVL1), endogenous in HCT116 cells (from UniProt Q15717 1-326)
binds | MAGOH, endogenous in HCT116 cells (from UniProt P61326 1-146)
binds | EDC3, endogenous in HCT116 cells (from UniProt Q96F86 1-508)
binds | DCP2, endogenous in HCT116 cells (from UniProt Q8IU60 1-420)
binds | PABPC1, endogenous in HCT116 cells (from UniProt P11940 1-636)
binds | FXR1, endogenous in HCT116 cells (from UniProt P51114 1-621)
binds | FXR2, endogenous in HCT116 cells (from UniProt P51116 1-673)
binds | YBX1, endogenous in HCT116 cells (from UniProt P67809 1-324)

From article PMC13431160
